LdMetRS: 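Primary screen of methionyl-tRNA synthetase; the read-out is not stated. Target: Methionyl-tRNA synthetase (putative), Leishmania donovani (UniProt E9BF75). The test concentration is not given. Values are per cent inhibition. Size under these conditions: about 68,000 compounds, about 24 of them at 50% or above in at least one test.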
Mtb heat-shock: 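Assay on Mycobacterium tuberculosis, filed only as a heat shock assay from Cornell; the read-out is not stated. The concentration is filed as 10 mM, unlikely as a test dose, so the dose is not known. Higher reads as stronger inhibition (inferred: compounds with an IC50 in retests scored well above the rest). Size under these conditions: about 69,000 compounds, about 930 of them at 50% or above in at least one test.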

The chains behind the UniProt entries cited, without tags or fusion partners.
UniProt E9BF75, entry or part of it: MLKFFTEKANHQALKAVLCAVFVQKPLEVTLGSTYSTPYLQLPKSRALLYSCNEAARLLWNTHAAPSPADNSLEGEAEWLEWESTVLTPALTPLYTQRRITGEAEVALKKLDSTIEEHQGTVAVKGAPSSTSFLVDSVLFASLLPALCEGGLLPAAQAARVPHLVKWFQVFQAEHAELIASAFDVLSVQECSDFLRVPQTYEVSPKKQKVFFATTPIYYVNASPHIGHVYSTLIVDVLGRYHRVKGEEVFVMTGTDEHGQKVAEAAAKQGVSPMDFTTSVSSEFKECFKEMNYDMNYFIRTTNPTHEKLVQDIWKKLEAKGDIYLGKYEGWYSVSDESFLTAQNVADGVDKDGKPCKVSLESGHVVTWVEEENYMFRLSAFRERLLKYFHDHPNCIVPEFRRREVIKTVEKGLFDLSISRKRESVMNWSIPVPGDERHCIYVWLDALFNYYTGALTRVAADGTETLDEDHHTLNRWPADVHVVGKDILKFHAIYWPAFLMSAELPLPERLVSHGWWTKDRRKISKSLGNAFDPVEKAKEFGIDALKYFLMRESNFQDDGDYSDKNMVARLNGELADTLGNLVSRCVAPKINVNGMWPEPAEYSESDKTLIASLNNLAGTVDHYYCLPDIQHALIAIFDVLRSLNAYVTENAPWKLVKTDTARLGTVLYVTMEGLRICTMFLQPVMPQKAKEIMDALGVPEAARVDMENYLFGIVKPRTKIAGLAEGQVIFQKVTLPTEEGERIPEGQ

All values are in %. How 0% and 100% were set is not recorded. Most values in the screen are low, and negative values occur. The compounds are a random part of those screened. A dash means the value is not listed here; it may have been measured.

| # | Compound | LdMetRS | Mtb heat-shock |
|---|---|---|---|
| 1 | `Cc1nnc([C@@]23CCO[C@@H]2CCN(Cc2ccc4c(c2)OCO4)C3)o1` | 8.211 | - |
| 2 | `CC(C(=O)NC1CCCC1)S(=O)(=O)Cc1noc(C(C)(C)C)n1` (stereo unspecified) | 2.29 | -6.916 |
| 3 | `CCn1cc(C(=O)N2CCCC(c3[nH]ncc3S(C)(=O)=O)C2)cn1` (stereo unspecified) | 16.43 | -22.68 |
| 4 | `Cc1cc(C)c2nc(CN3CCCC(c4cc[nH]n4)C3)cc(O)c2c1` (stereo unspecified) | 14.13 | -4.5 |
| 5 | `O=C(CN1CCOC(CNc2cccnn2)C1)NCc1ccccn1` (stereo unspecified) | 7.163 | -12.01 |
| 6 | `Cc1cc(=O)n(C)cc1NC(=O)NCc1cccc(F)c1` | 15.32 | 10.75 |
| 7 | `Cc1cc(C)nc(CN(C)c2nc(C3CCCC3)nc3c2cnn3C)c1` | 15.77 | 12.57 |
| 8 | `CCc1nccn1CC1CCCN1S(=O)(=O)Cc1ccccc1` (stereo unspecified) | 14.46 | -1.541 |
| 9 | `CN(C)C(=O)C1CN(Cc2ccsc2)CCN(S(C)(=O)=O)C1` (stereo unspecified) | 14.06 | -7.048 |
| 10 | `Cc1ccc(C(C)NCc2cn(CCC(N)=O)c3ccccc23)cc1C` (stereo unspecified) | 17.42 | 32.35 |
| 11 | `COc1ccc(C(CNC(=O)c2c(C)noc2C)N(C)C)cc1` (stereo unspecified) | -18.73 | -43.26 |
| 12 | `CCCn1nccc1-c1cnc(CC2CCN(C(C)=O)C2)cn1` (stereo unspecified) | 18.1 | -7.586 |
| 13 | `O=C(NCCOc1ccc2c(c1)OCO2)C1CC(=O)N(CC2CC2)C1` (stereo unspecified) | 3.937 | 2.248 |
| 14 | `CC(O)CN1CCN(C(=O)c2ccc3c(c2)COC3)CC1` (stereo unspecified) | 10.8 | -12.07 |
| 15 | `COCC(O)CNC(=O)c1coc(COc2ccc3sc(C)nc3c2)n1` (stereo unspecified) | 11.33 | 1.774 |
| 16 | `CC(C)CCN1CCN(Cc2nc(C3CC3)no2)CC1` | 5.714 | 15.35 |
| 17 | `COCCn1cnc2ccc(NC(=O)c3ccccn3)cc2c1=O` | 14.92 | -0.2454 |
| 18 | `Cc1ncsc1C(=O)N1CCCC1c1c(C)nn(C)c1C` (stereo unspecified) | 12.57 | 7.126 |
| 19 | `[H][C@]12CN(C)C(=O)[C@@]1([H])CN(C(=O)C1CC=CC1)C2` | - | -1.029 |
| 20 | `CC(=O)N1CCN(C(=O)NCc2ccc(Cl)s2)CC1` | 14.04 | -18.86 |
| 21 | `CCCc1nc(C)c(C(=O)NS(=O)(=O)c2ccc(C#N)cc2)s1` | 11.23 | 1.625 |
| 22 | `CCOC1COC2(CCN(c3ccccn3)CC2)C1.O=C(O)C(F)(F)F` (stereo unspecified) | - | 28.21 |
| 23 | `CCS(=O)(=O)c1ccccc1N1CCC(NC(=O)c2ccc[nH]2)CC1` | 17.46 | 3.832 |
| 24 | `Cc1cc(C)n(C2CN(CC(O)c3ccc(S(C)(=O)=O)cc3)C2)n1` (stereo unspecified) | 22.89 | 17.26 |
| 25 | `CNC(=O)c1cc2c(nc1NCC1CC1)CCN(S(=O)(=O)C1CC1)CC2` | 7.843 | 0.7321 |
| 26 | `Cc1cc(N2CCC(c3nnc(CN(C)C)n3C3CC3)CC2)ccn1` | 5.31 | -0.4086 |
| 27 | `Cc1cc(C)c2nc(CN3CCC(N4CCOC4=O)CC3)cc(O)c2c1` | 6.044 | -7.174 |
| 28 | `Cc1nc(NCCSc2cnn[nH]2)c2c(C)noc2n1` | 7.971 | 2.871 |
| 29 | `Cc1cnn(CC2CCCCN2C(=O)c2sccc2C#N)c1` (stereo unspecified) | 10.8 | -14.72 |
| 30 | `CCC(O)CN1CCN(C(=O)c2cccc(CC#N)c2)CC1` (stereo unspecified) | 4.217 | -6.995 |
| 31 | `Cc1ccc(CNC(c2ccccc2)c2nccn2C)cc1.Cl` (stereo unspecified) | - | 106.1 |
| 32 | `c1cc(CNCc2ccnc(N3CCCCC3)c2)c2c(c1)OCCCO2` | 21.35 | 10.36 |
| 33 | `CSC(C)(C)CNC(=O)NCc1cccc(-n2ccnc2)c1` | 12.83 | 10.77 |
| 34 | `O=C(O)c1coc(COc2cccc3cnccc23)n1` | 1.031 | -5.887 |
| 35 | `Cc1nn(C)c(=O)c2nn(-c3ccc(Cl)cc3)c(C)c12` | 16.09 | -6.506 |
| 36 | `O=C(CCNC(=O)NC1CC1)NCc1ccccc1` | 16.09 | -5.215 |
| 37 | `CCc1nnc(CNC(=O)CCCN2CCCCC2)s1` | 14.25 | 19.22 |
| 38 | `COC(=O)Nc1cccc(C(=O)N(C)Cc2cccc(O)c2)c1` | 20.25 | -2.205 |
| 39 | `CC(C)CN1CCCn2nc(CNC(=O)c3cccnc3O)cc2C1` | 11.71 | -26.21 |
| 40 | `O=C(O)C(F)(F)F.O=C(O)C(F)(F)F.O=C(O)C(F)(F)F.[H][C@@]12CN(CCOC)CCO[C@]1([H])CN(Cc1ccccn1)C2` | - | -19.71 |
| 41 | `CCc1ncc2c(n1)CN(CC(=O)Nc1nnc(C)s1)CC2` | 15.38 | -3.585 |
| 42 | `[H][C@]12CC[C@]([H])(CN(Cc3cccc(OCc4ccccn4)c3)C1)N(C)C2=O` | - | 23.24 |
| 43 | `CCc1cnc(N2C[C@@H]3[C@@H](C(=O)NC(C)C)CCS(=O)(=O)[C@@H]3C2)nc1` | 14.38 | - |
| 44 | `CCOCCN1CCN(Cc2coc(-c3cccc(F)c3)n2)CC1` | 12.82 | -13.08 |
| 45 | `COCCn1ccc(NC(=O)Nc2cccnc2)n1` | 14.79 | -16.98 |
| 46 | `CC(C)(C)CC(=O)NCC(=O)Nc1ccn(Cc2ccncc2)n1` | 13.03 | -14.83 |
| 47 | `Cc1noc(C)c1CN1C[C@@H]2COC[C@]2(COc2ccc(C#N)cn2)C1` | 15 | - |
| 48 | `O=C(c1ccc(=O)[nH]n1)N1CCc2ccccc21` | 17.83 | -0.1583 |
| 49 | `O=C(O)C(F)(F)F.O=C(O)C(F)(F)F.[H][C@@]12CN(Cc3nccs3)CCC[C@]1(C(=O)OCC)CN(C(C)C)C2` | - | -0.1626 |
| 50 | `CCOC[C@]12COC[C@H]1CN(Cc1cccc(OC)c1)C2` | 7.333 | - |
| 51 | `CNc1nc2ncc(Cl)cc2cc1C#N` | 10.78 | 4.632 |
| 52 | `COc1c(CNCCc2c[nH]c3ccccc23)c(C(C)C)nn1C` | 8.309 | 5.596 |
| 53 | `COC(=O)[C@H]1C[C@@H](O)CCN1S(=O)(=O)c1cc(C)c(Cl)cc1C` | 18.21 | 17.65 |
| 54 | `O=S(=O)(c1ccc(F)cc1)N1CCCn2cnc(CN3CCCC3)c2C1` | 12.59 | 11.33 |
| 55 | `O=C(CCOc1ccc(Br)cc1)N1CCN(c2cnccn2)CC1` | 12.02 | -13.89 |
| 56 | `CN(Cc1cccc(F)c1)C(=O)c1ccncc1Cl` | 4.359 | 6.591 |
| 57 | `CNC(=O)CN(C)c1nc(-c2ccncc2)nc2c1CCN(C(C)=O)C2` | 14.07 | -7.114 |
| 58 | `Cc1ccccc1C(=O)N1CCN(c2ccc(-n3cncn3)nn2)CC1` | 8.633 | 8.302 |
| 59 | `CC(C)C1CN(C(=O)c2ccc(C(N)=O)cc2)CCS1` (stereo unspecified) | 8.661 | -34.9 |
| 60 | `CC(C)C(CCO)NC(=O)Nc1ccc(-c2csnn2)cc1` (stereo unspecified) | 15.97 | 18.42 |
| 61 | `CC(Nc1ccc(Oc2cccc(C#N)c2)cc1)C(=O)NC1CC1` (stereo unspecified) | 10.51 | 38.86 |
| 62 | `CS(=O)(=O)CCOCCNc1ccc(C#N)cc1F` | 22.18 | 19.3 |
| 63 | `OCCCc1nncn1-c1cccc(C(F)(F)F)c1` | 7.5 | 1.387 |
| 64 | `CCN1CCC2(CN(C(=O)N(C)C)CC23CCNCC3)C1=O` (stereo unspecified) | 11.67 | - |
| 65 | `Cc1ncsc1C(=O)N1CCC(c2ccc3c(NC(C)C)n[nH]c3n2)C1` (stereo unspecified) | 12.38 | -3.016 |

From ChEMBL document CHEMBL3988442, “University of Dundee, Small-Polar-MMV Screening Library” (2021).